PubChem BioAssay AID743454 – Peter MacCallum Cancer Centre | 2014
Assay: 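Search for knock-downs that restore vorinostat killing in resistant colon cancer cells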 (primary screen). System: human HCT116-VR colon cancer cells, selected for vorinostat resistance. Reagents: siRNA pool against human genes, 40 nM siRNA pool. Duration: vorinostat for 24 h, read-out about 72 h after transfection. Treatment: vorinostat at 2.5 µM final. Measurement: 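Cell viability by CellTiter-Fluor and caspase 3/7 activity by luminescence, each scaled to mock wells per plate, duplicates averaged, then robust z-scored over all plates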. Scale: viability robust z-score: higher = more viable cells than screen typical; caspase robust z-score: higher = more caspase 3/7 activity than screen typical. Rule for the call: 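a knock-down is a hit when classed RV1 or RV2 for lowered viability, or CA1 or CA2 for caspase activation; those lethal without drug were dropped; hits were retested singly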.
The deposit covers about 18,000 reagents; below is an unselected part. 450 of them (2.5%) were called active. 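Single biological run; no consistent viability z cut-off exists, so the class columns, not z-scores, define the calls.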 Unmarked entries are inactive.

With DOCK1 [SID152154591], how do the results read?
viability hit class: no change; caspase hit class: no change; viability robust z-score: -0.91; caspase robust z-score: 1.19

What did the screen give for TSLP [SID135622584]?
viability hit class: no change; caspase hit class: no change; viability robust z-score: 0.55; caspase robust z-score: -0.45

With MUC13 [SID152155380], what does the deposit list?
viability hit class: no change; caspase hit class: no change; viability robust z-score: 0.58; caspase robust z-score: 0.49

Which result is listed for CXCL6 [SID152150005]?
viability hit class: no change; caspase hit class: no change; viability robust z-score: -1.46; caspase robust z-score: -1.15

With TUBE1 [SID134312006], what does the deposit list?
viability hit class: no change; caspase hit class: no change; viability robust z-score: -0.05; caspase robust z-score: -1.08

What did the screen give for OR6C6 [SID134329934]?
viability hit class: no change; caspase hit class: no change; viability robust z-score: 0.35; caspase robust z-score: 0.57

What is on record for SCARF2 [SID135623344]?
viability hit class: no change; caspase hit class: no change; viability robust z-score: 0.06; caspase robust z-score: -0.04

What is on record for HLTF [SID152156563]?
viability hit class: no change; caspase hit class: no change; viability robust z-score: 0.6; caspase robust z-score: 3.03

With MEIOB [SID134319784], how do the results read?
viability hit class: no change; caspase hit class: no change; viability robust z-score: -0.88; caspase robust z-score: -1.13

With RIT2 [SID152150068], what was measured?
viability hit class: no change; caspase hit class: no change; viability robust z-score: -0.78; caspase robust z-score: 0.1

With LRRC19 [SID134318404], how do the results read?
viability hit class: no change; caspase hit class: no change; viability robust z-score: -1.03; caspase robust z-score: -0.82

What did the screen give for KCNN3 [SID135621172]?
viability hit class: no change; caspase hit class: no change; viability robust z-score: -1.1; caspase robust z-score: 0.33

Which result is listed for ADIPOQ [SID134316249]?
viability hit class: no change; caspase hit class: no change; viability robust z-score: 1.79; caspase robust z-score: 0.03

What did the screen give for NEDD8 [SID152151265]?
viability hit class: no change; caspase hit class: no change; viability robust z-score: -0.08; caspase robust z-score: 2.93

A stretch from the list above, for reference:
CXCL6 [SID152150005] | viability hit class: no change; caspase hit class: no change; viability robust z-score: -1.46; caspase robust z-score: -1.15
TUBE1 [SID134312006] | viability hit class: no change; caspase hit class: no change; viability robust z-score: -0.05; caspase robust z-score: -1.08
